Measured values taken from article PMC7347597, “INTS10–INTS13–INTS14 form a functional module of Integrator that binds nucleic acids and the cleavage module” (Nature Communications, 2020).
For some assays here: The comparison behind a weaker result is the experiment's own reference, which may not be listed here. Construct, isoform or probe ends are uncertain for at least one entry. For some assays here: The direction of at least one scale is not stated here.

Chains of the proteins cited; added tags and fusions are not shown. Chains listed by the source or under a name are the forms on record and can include a tag or linker.
INTS13-INTS14 heterodimer (Homo sapiens), one chain, as listed by the source, chain 1 of 2: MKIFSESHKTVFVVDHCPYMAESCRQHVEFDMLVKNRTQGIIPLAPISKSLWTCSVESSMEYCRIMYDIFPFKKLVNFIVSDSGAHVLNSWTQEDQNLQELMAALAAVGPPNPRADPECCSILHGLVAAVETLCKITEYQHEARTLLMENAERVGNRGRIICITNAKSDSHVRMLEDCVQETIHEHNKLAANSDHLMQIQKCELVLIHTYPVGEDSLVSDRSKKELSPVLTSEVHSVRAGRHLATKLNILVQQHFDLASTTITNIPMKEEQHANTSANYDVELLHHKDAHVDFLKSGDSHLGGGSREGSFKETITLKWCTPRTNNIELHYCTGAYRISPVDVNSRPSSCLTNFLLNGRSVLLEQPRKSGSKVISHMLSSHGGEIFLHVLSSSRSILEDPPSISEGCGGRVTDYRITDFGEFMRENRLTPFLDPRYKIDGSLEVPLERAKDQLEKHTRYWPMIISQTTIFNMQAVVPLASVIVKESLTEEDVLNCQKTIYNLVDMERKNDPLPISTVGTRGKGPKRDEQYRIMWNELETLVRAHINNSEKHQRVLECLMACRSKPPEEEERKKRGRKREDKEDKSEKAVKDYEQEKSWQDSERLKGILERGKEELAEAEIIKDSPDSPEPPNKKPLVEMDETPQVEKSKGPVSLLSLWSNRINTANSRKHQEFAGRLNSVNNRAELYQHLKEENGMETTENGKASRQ
INTS13-INTS14 heterodimer (Homo sapiens), one chain, as listed by the source, chain 2 of 2: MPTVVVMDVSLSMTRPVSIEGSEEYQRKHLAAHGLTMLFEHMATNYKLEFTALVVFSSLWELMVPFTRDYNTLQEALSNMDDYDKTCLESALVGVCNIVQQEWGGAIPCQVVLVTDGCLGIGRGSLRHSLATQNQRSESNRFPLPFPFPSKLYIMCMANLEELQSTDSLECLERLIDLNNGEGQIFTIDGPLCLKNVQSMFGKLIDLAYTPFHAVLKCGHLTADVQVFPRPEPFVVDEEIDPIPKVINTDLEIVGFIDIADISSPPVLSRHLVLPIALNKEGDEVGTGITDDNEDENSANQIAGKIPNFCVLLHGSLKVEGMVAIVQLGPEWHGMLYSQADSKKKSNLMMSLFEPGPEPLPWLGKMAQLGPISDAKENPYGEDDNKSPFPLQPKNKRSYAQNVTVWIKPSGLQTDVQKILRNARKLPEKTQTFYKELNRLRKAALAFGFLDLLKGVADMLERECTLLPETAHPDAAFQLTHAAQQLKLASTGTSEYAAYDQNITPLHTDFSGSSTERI
INTS10-INTS13-INTS14 heterotrimer (Homo sapiens), one chain, as listed by the source, chain 1 of 3: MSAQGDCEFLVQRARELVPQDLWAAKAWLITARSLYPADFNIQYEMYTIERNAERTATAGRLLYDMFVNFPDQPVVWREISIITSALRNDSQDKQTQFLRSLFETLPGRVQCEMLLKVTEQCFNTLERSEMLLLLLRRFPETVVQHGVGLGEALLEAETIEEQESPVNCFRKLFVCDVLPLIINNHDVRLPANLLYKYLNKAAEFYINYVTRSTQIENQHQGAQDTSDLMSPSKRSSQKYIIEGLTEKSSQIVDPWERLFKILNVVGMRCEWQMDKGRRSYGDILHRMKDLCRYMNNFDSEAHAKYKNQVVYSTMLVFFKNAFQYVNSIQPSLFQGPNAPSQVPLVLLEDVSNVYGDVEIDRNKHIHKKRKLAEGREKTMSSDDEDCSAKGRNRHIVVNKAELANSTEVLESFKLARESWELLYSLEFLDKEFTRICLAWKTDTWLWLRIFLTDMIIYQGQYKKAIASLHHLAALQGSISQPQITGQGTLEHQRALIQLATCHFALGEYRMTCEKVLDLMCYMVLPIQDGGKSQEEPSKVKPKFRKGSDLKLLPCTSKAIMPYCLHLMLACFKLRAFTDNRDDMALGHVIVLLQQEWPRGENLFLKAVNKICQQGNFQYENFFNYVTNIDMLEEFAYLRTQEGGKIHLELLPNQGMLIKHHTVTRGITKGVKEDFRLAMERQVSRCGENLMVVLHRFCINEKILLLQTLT

Tests used:
[1] = tested on: INTS13-INTS14 heterodimer (Homo sapiens); assay: EMSA; conditions: EMSA: 50 mM HEPES pH 7.5, 200 mM NaCl, 2 mM MgCl2, on ice, 2 uM RNA or 1 uM DNA, recombinant protein
[2] = tested on: INTS10-INTS13-INTS14 heterotrimer (Homo sapiens); assay: EMSA; conditions: EMSA: 50 mM HEPES pH 7.5, 200 mM NaCl, 2 mM MgCl2, on ice, 2 uM RNA or 1 uM DNA, recombinant protein
[3] = tested on: INTS13-INTS14 heterodimer (Homo sapiens); assay: fluorescence polarization; conditions: low salt (no additional NaCl); FP: 10 nM RNA, 10 mM HEPES pH 7.5, 5% glycerol, 2 mM MgCl2, 50 mM NaCl or none added, temperature not stated; recombinant …; label: 5'-6-FAM
[4] = tested on: INTS10-INTS13-INTS14 heterotrimer (Homo sapiens); assay: fluorescence polarization; conditions: low salt (no additional NaCl); FP: 10 nM RNA, 10 mM HEPES pH 7.5, 5% glycerol, 2 mM MgCl2, 50 mM NaCl or none added, temperature not stated; recombinant …; label: 5'-6-FAM
[5] = letters put together from the description

## ACTTTCTGGAGTTTCAAAAACAGACTGTACGCCA [U1 3'-box ssDNA]
[1]; single-stranded DNA
  binding result: binds more weakly
[2]; single-stranded DNA
  binding result: binds more weakly

## CUGGAGUUUCAAAAACAGACUG [U1 3'-box ssRNA (FP)]
[3]
  binding signal (fold higher affinity than standard salt): 7
[4]
  binding signal (fold higher affinity than standard salt): 18

## GGACUUUCUGGAGUUUCAAAAACAGACUGUACGCCAGCCGG [U1 3'-box ssRNA (EMSA)]
[1]; [5]
  binding result: binds
[2]; [5]
  binding result: binds

## ACTTTCTGGAGTTTCAAAAACAGACTGTACGCCA (double strand) [U1 3'-box dsDNA]
[1]
  binding result: binds more weakly
[2]
  binding result: binds more weakly
